Data as given in PubChem BioAssay AID1259424 (University of Nebraska Medical Center, 2018).
Test: 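Rank knockdowns across the genome by resemblance to the KSR1 depletion profile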 (primary screen). System: human HCT116 colon cancer cells. Reagent: siRNA pool against human genes, 50 nM. Measurement: 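Log2 levels of six mRNAs (branched-DNA multiplex), adjusted by two reference genes and the non-targeting median, then scored against the average KSR1 knockdown pattern as Pearson r and euclidean distance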. Reading the numbers: mean correlation with KSR1 profile: higher = expression change more like KSR1 knockdown; mean distance from KSR1 profile: higher = expression change less like KSR1 knockdown.
The deposit covers about 14,000 reagents; below is an unselected part. 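Higher correlation or smaller distance means closer resemblance to KSR1 loss; control wells, including KSR1 knockdowns, recur on many plates.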 Not all columns of the deposit are shown. No sequences are given here. The record does not give: the time to read-out.

ERBIN (erbb2 interacting protein) scored mean correlation with KSR1 profile 0.0379; mean distance from KSR1 profile 1.31.
After knock-down of CLTC (clathrin heavy chain), the record shows mean correlation with KSR1 profile -0.307; mean distance from KSR1 profile 3.69.
Knock-down of TMEM161A (transmembrane protein 161A) resulted in: mean correlation with KSR1 profile 0.0625; mean distance from KSR1 profile 2.43.
With knock-down of SMARCD1 (SWI/SNF related BAF chromatin remodeling complex subunit D1), the record shows mean correlation with KSR1 profile -0.333; mean distance from KSR1 profile 1.48.
Depletion of TTC38 (tetratricopeptide repeat domain 38) resulted in: mean correlation with KSR1 profile 0.283; mean distance from KSR1 profile 1.74.
TMEM132B (transmembrane protein 132B) gave mean correlation with KSR1 profile -0.278; mean distance from KSR1 profile 2.78.
For RBM26 (RNA binding motif protein 26) the deposit lists mean correlation with KSR1 profile -0.468; mean distance from KSR1 profile 3.74.
After knock-down of PPM1G (protein phosphatase, Mg2+/Mn2+ dependent 1G) the results were mean correlation with KSR1 profile 0.14; mean distance from KSR1 profile 2.16.
For TCF7L1 (transcription factor 7 like 1), the values are mean correlation with KSR1 profile 0.117; mean distance from KSR1 profile 3.83.
Against CD40 (CD40 molecule), the entry reads mean correlation with KSR1 profile 0.738; mean distance from KSR1 profile 0.834.
For RAB2A (RAB2A, member RAS oncogene family), the entry reads mean correlation with KSR1 profile -0.281; mean distance from KSR1 profile 2.59.
Against SFTPB (surfactant protein B), the entry reads mean correlation with KSR1 profile -0.21; mean distance from KSR1 profile 2.54.
Knock-down of VAPB (VAMP associated protein B and C) came out at: mean correlation with KSR1 profile 0.576; mean distance from KSR1 profile 3.09.
Against EYA1 (EYA transcriptional coactivator and phosphatase 1), the values are mean correlation with KSR1 profile -0.241; mean distance from KSR1 profile 1.86.
Against STX4 (syntaxin 4) the deposit lists mean correlation with KSR1 profile 0.0419; mean distance from KSR1 profile 2.03.
With knock-down of CCDC174 (coiled-coil domain containing 174), the record shows mean correlation with KSR1 profile -0.416; mean distance from KSR1 profile 1.53.
For MYOD1 (myogenic differentiation 1), the values are mean correlation with KSR1 profile 0.294; mean distance from KSR1 profile 2.76.
Silencing of PROC (protein C, inactivator of coagulation factors Va and VIIIa) came out at: mean correlation with KSR1 profile 0.0407; mean distance from KSR1 profile 1.94.
LIPG (lipase G, endothelial type) showed mean correlation with KSR1 profile -0.847; mean distance from KSR1 profile 1.25.

Just “mean correlation with KSR1 profile” (2 entries from above):
CCDC174 (coiled-coil domain containing 174)	-0.416
MYOD1 (myogenic differentiation 1)	0.294
